The record followed here is patent US20060216730A1, “Novel human protein kinases and protein kinase-like enzymes” (SUGEN, INC., priority 1999, published 2006).

The data set has as its system kinase genes SGK187, SGK124, SGK386, SGK003, SGK077, SGK093, SGK074, SGK396. The data set can be described thus: Tissue array gene expression (cDNA libraries on nylon probed with labeled kinase genes; includes compound-treated cell lines). On the set-up: species or system human.
Where [1] appears, read: HEPM cells 3d TGFB1, detergent + DNase, Normal, asym cDNA sample.
Where [2] appears, read: tissue array, cDNA from HEPM cells, 3d treatment, detergent + DNase, asym.

On to TGFB1, for which, under setting [1], the “Normalized expression value SGK003 ID#NA_22” value was 0, the “Normalized expression value SGK074 ID#NA_32” value is listed as 26,232, the “Normalized expression value SGK093 ID#NA_31” value worked out at 0 and the “Normalized expression value SGK124 ID#NA_9” value was determined as 134. For the same substance, under setting [1], the “Normalized expression value SGK187 ID#NA_1” value stood at 69, the “Normalized expression value SGK386 ID#NA_21” value is 0 and the “Normalized expression value SGK396 ID#NA_43” value was found to be 166. For the same substance, under setting [2], the “Normalized expression value SGK003 ID#NA_22” value is 0, the “Normalized expression value SGK074 ID#NA_32” value is listed as 26,232, the “Normalized expression value SGK093 ID#NA_31” value is recorded as 0 and the “Normalized expression value SGK124 ID#NA_9” value came to 134. Further, under setting [2], the “Normalized expression value SGK187 ID#NA_1” value is 69, the “Normalized expression value SGK386 ID#NA_21” value was 0 and the “Normalized expression value SGK396 ID#NA_43” value came out at 166.
